From the supplement of paper PMC8728848
This is one part of the list.

Tests used:
Test in all cases: glycan array binding signal (z-score within array); higher = stronger binding
Details in all cases: glycan notation: IUPAC condensed, linker removed
[1] = molecular target: Gal(b1-3)[Fuc(a1-4)]GlcNAc(b1-3)Gal(b1-4)[Fuc(a1-3)]GlcNAc
How it was run: (§1)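 Columns mapping to the same glycan were averaged after glycan names were converted to IUPAC-condensed notation. The data come from 3228 arrays in the Consortium for Functional Glycomics database, limited to those with an available protein sequence. Binding is reported as a within-array Z-score averaged across arrays of one protein sequence and across linkers.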

[2] = molecular target: Gal(b1-3)[Fuc(a1-4)]GlcNAc(b1-6)GalNAc
How it was run: as §1

[3] = molecular target: Gal(b1-3)[GlcNAc(b1-6)]GalNAc
How it was run: as §1

[4] = molecular target: Gal(b1-3)[Neu5Ac(a2-6)]GalNAc
How it was run: as §1

[5] = molecular target: Gal(b1-3)[Neu5Ac(a2-6)]GlcNAc(b1-4)Gal(b1-4)Glc
How it was run: as §1

[6] = molecular target: Gal(b1-3)[Neu5Ac(b2-6)]GalNAc
How it was run: as §1

Gal(b1-4)Gal = molecular target: Gal(b1-4)Gal
How it was run: as §1

[7] = molecular target: Gal(b1-4)GalNAc(a1-3)[Fuc(a1-2)]Gal(b1-4)GlcNAc
How it was run: as §1

[8] = molecular target: Gal(b1-4)GalNAc(b1-3)[Fuc(a1-2)]Gal(b1-4)GlcNAc
How it was run: as §1

Gal(b1-4)Glc = molecular target: Gal(b1-4)Glc
How it was run: as §1

Gal(b1-4)Glc6S = molecular target: Gal(b1-4)Glc6S
How it was run: as §1

Gal(b1-4)GlcNAc = molecular target: Gal(b1-4)GlcNAc
How it was run: as §1

[9] = molecular target: Gal(b1-4)GlcNAc(a1-6)Gal(b1-4)GlcNAc
How it was run: as §1

Gal(b1-4)GlcNAc(b1-2)Man = molecular target: Gal(b1-4)GlcNAc(b1-2)Man
How it was run: as §1

[10] = molecular target: Gal(b1-4)GlcNAc(b1-2)Man(a1-3)Man(b1-4)GlcNAc(b1-4)GlcNAc
How it was run: as §1

[11] = molecular target: Gal(b1-4)GlcNAc(b1-2)Man(a1-3)[Gal(b1-4)GlcNAc(b1-2)Man(a1-6)]Man(b1-4)GlcNAc(b1-4)GlcNAc
How it was run: as §1

[12] = molecular target: Gal(b1-4)GlcNAc(b1-2)Man(a1-3)[Gal(b1-4)GlcNAc(b1-2)Man(a1-6)]Man(b1-4)GlcNAc(b1-4)[Fuc(a1-6)]GlcNAc
How it was run: as §1

[13] = molecular target: Gal(b1-4)GlcNAc(b1-2)Man(a1-3)[Gal(b1-4)GlcNAc(b1-2)Man(a1-6)][Gal(b1-4)GlcNAc(b1-4)]Man(b1-4)GlcNAc(b1-4)[Fuc(a1-6)]GlcNAc
How it was run: as §1

[14] = molecular target: Gal(b1-4)GlcNAc(b1-2)Man(a1-3)[Gal(b1-4)GlcNAc(b1-2)Man(a1-6)][GlcNAc(b1-4)]Man(b1-4)GlcNAc(b1-4)[Fuc(a1-6)]GlcNAc
How it was run: as §1

[15] = molecular target: Gal(b1-4)GlcNAc(b1-2)Man(a1-3)[GlcNAc(b1-2)Man(a1-6)]Man(b1-4)GlcNAc(b1-4)GlcNAc
How it was run: as §1

[16] = molecular target: Gal(b1-4)GlcNAc(b1-2)Man(a1-3)[GlcNAc(b1-4)][Gal(b1-4)GlcNAc(b1-2)Man(a1-6)]Man(b1-4)GlcNAc(b1-4)GlcNAc
How it was run: as §1

[17] = molecular target: Gal(b1-4)GlcNAc(b1-2)Man(a1-3)[Man(a1-6)]Man(b1-4)GlcNAc(b1-4)GlcNAc
How it was run: as §1

[18] = molecular target: Gal(b1-4)GlcNAc(b1-2)Man(a1-6)Man(b1-4)GlcNAc(b1-4)GlcNAc
How it was run: as §1

[19] = molecular target: Gal(b1-4)GlcNAc(b1-2)Man(a1-6)[GlcNAc(b1-2)Man(a1-3)]Man(b1-4)GlcNAc(b1-4)GlcNAc
How it was run: as §1

[20] = molecular target: Gal(b1-4)GlcNAc(b1-2)Man(a1-6)[Man(a1-3)]Man(b1-4)GlcNAc(b1-4)GlcNAc
How it was run: as §1

[21] = molecular target: Gal(b1-4)GlcNAc(b1-2)[Gal(b1-4)GlcNAc(b1-4)]Man(a1-3)[Gal(b1-4)GlcNAc(b1-2)Man(a1-6)]Man(b1-4)GlcNAc(b1-4)GlcNAc
How it was run: as §1

[22] = molecular target: Gal(b1-4)GlcNAc(b1-2)[Gal(b1-4)GlcNAc(b1-4)]Man(a1-3)[Gal(b1-4)GlcNAc(b1-2)[Gal(b1-4)GlcNAc(b1-6)]Man(a1-6)]Man(b1-4)GlcNAc(b1-4)GlcNAc
How it was run: as §1

[23] = molecular target: Gal(b1-4)GlcNAc(b1-2)[Gal(b1-4)GlcNAc(b1-4)]Man(a1-3)[GlcNAc(b1-4)][Gal(b1-4)GlcNAc(b1-2)Man(a1-6)]Man(b1-4)GlcNAc(b1-4)GlcNAc
How it was run: as §1

[24] = molecular target: Gal(b1-4)GlcNAc(b1-2)[Gal(b1-4)GlcNAc(b1-4)]Man(a1-3)[GlcNAc(b1-4)][Gal(b1-4)GlcNAc(b1-2)[Gal(b1-4)GlcNAc(b1-6)]Man(a1-6)]Man(b1-4)GlcNAc(b1-4)GlcNAc
How it was run: as §1

[25] = molecular target: Gal(b1-4)GlcNAc(b1-2)[Gal(b1-4)GlcNAc(b1-6)]Man(a1-6)[Gal(b1-4)GlcNAc(b1-2)Man(a1-3)]Man(b1-4)GlcNAc(b1-4)GlcNAc
How it was run: as §1

[26] = molecular target: Gal(b1-4)GlcNAc(b1-2)[Gal(b1-4)GlcNAc(b1-6)]Man(a1-6)[Gal(b1-4)GlcNAc(b1-2)Man(a1-3)]Man(b1-4)GlcNAc(b1-4)[Fuc(a1-6)]GlcNAc
How it was run: as §1

[27] = molecular target: Gal(b1-4)GlcNAc(b1-2)[Gal(b1-4)GlcNAc(b1-6)]Man(a1-6)[GlcNAc(b1-4)][Gal(b1-4)GlcNAc(b1-2)Man(a1-3)]Man(b1-4)GlcNAc(b1-4)GlcNAc
How it was run: as §1

[28] = molecular target: Gal(b1-4)GlcNAc(b1-2)[Gal(b1-4)GlcNAc(b1-6)]Man(a1-6)[GlcNAc(b1-4)][Gal(b1-4)GlcNAc(b1-2)[Gal(b1-4)GlcNAc(b1-4)]Man(a1-3)]Man(b1-4)GlcNAc(b1-4)[Fuc(a1-6)]GlcNAc
How it was run: as §1

[29] = molecular target: Gal(b1-4)GlcNAc(b1-3)Gal(b1-3)GalNAc
How it was run: as §1

[30] = molecular target: Gal(b1-4)GlcNAc(b1-3)Gal(b1-3)GlcNAc
How it was run: as §1

[31] = molecular target: Gal(b1-4)GlcNAc(b1-3)Gal(b1-4)Glc
How it was run: as §1

[32] = molecular target: Gal(b1-4)GlcNAc(b1-3)Gal(b1-4)GlcNAc
How it was run: as §1

[33] = molecular target: Gal(b1-4)GlcNAc(b1-3)Gal(b1-4)GlcNAc(b1-2)Man(a1-3)[Gal(b1-4)GlcNAc(b1-3)Gal(b1-4)GlcNAc(b1-2)Man(a1-6)]Man(b1-4)GlcNAc(b1-4)GlcNAc
How it was run: as §1

B1: MtEccB1 (Mycobacterium tuberculosis H37Rv), O69734 (protein)
chain: MGLRLTTKVQVSGWRFLLRRLEHAIVRRDTRMFDDPLQFYSRSIALGIVVAVLILAGAALLAYFKPQGKLGGTSLFTDRATNQLYVLLSGQLHPVYNLTSARLVLGNPANPATVKSSELSKLPMGQTVGIPGAPYATPVSAGSTSIWTLCDTVARADSTSPVVQTAVIAMPLEIDASIDPLQSHEAVLVSYQGETWIVTTKGRHAIDLTDRALTSSMGIPVTARPTPISEGMFNALPDMGPWQLPPIPAAGAPNSLGLPDDLVIGSVFQIHTDKGPQYYVVLPDGIAQVNATTAAALRATQAHGLVAPPAMVPSLVVRIAERVYPSPLPDEPLKIVSRPQDPALCWSWQRSAGDQSPQSTVLSGRHLPISPSAMNMGIKQIHGTATVYLDGGKFVALQSPDPRYTESMYYIDPQGVRYGVPNAETAKSLGLSSPQNAPWEIVRLLVDGPVLSKDAALLEHDTLPADPSPRKVPAGASGAP
- glycan array binding signal (z-score) [1]: -0.38
- glycan array binding signal (z-score) [2]: 0.341
- glycan array binding signal (z-score) [3]: 0.055
- glycan array binding signal (z-score) [4]: -0.008
- glycan array binding signal (z-score) [5]: -0.866
- glycan array binding signal (z-score) [6]: 0.512
- glycan array binding signal (z-score) (Gal(b1-4)Gal): -1.14
- glycan array binding signal (z-score) [7]: -0.148
- glycan array binding signal (z-score) [8]: 0.471
- glycan array binding signal (z-score) (Gal(b1-4)Glc): -0.289
- glycan array binding signal (z-score) (Gal(b1-4)Glc6S): 0.054
- glycan array binding signal (z-score) (Gal(b1-4)GlcNAc): 0.13
- glycan array binding signal (z-score) [9]: 0.001
- glycan array binding signal (z-score) (Gal(b1-4)GlcNAc(b1-2)Man): 1.96
- glycan array binding signal (z-score) [10]: -1.1
- glycan array binding signal (z-score) [11]: -1.33
- glycan array binding signal (z-score) [12]: -0.547
- glycan array binding signal (z-score) [13]: -0.314
- glycan array binding signal (z-score) [14]: 1.03
- glycan array binding signal (z-score) [15]: -0.401
- glycan array binding signal (z-score) [16]: -0.452
- glycan array binding signal (z-score) [17]: -0.911
- glycan array binding signal (z-score) [18]: -0.429
- glycan array binding signal (z-score) [19]: 0.57
- glycan array binding signal (z-score) [20]: 2.86
- glycan array binding signal (z-score) [21]: -0.518
- glycan array binding signal (z-score) [22]: -0.134
- glycan array binding signal (z-score) [23]: 0.173
- glycan array binding signal (z-score) [24]: -0.941
- glycan array binding signal (z-score) [25]: -0.552
- glycan array binding signal (z-score) [26]: 0.172
- glycan array binding signal (z-score) [27]: -1.21
- glycan array binding signal (z-score) [28]: -1.2
- glycan array binding signal (z-score) [29]: -0.574
- glycan array binding signal (z-score) [30]: -1.23
- glycan array binding signal (z-score) [31]: 0.106
- glycan array binding signal (z-score) [32]: 0.131
- glycan array binding signal (z-score) [33]: 0.695
